Source: publication PMC3958483, “Fine Specificity and Molecular Competition in SLAM Family Receptor Signalling” (PLoS ONE, 2014)
Entries after “also recorded” stand apart in the source; their conditions may differ.

Test system: NK92 cells
Experiment: Quantitation of protein in NK92 cells by western blotting
Set-up: species or system human

## SHP-2: SH2 domain containing tyrosine phosphatase
Figure 4, representative blot, per 0.1×10^6 NK92 cells
  protein expressed by 0.1×10^6 NK92 cells: 92 ng
NK92 cells
  cellular concentration compared with KD: approximately an order of magnitude higher than the KD
NK92 cells, b1: adaptors SAP and EAT-2, b49: SAP
  concentration of SHP-2 compared with SAP / the adaptors: in the order of a magnitude higher; also recorded: an order of magnitude higher concentration
Estimated total cellular concentration in NK92, cell diameter 10 μm, volume 523 fL
  Concentration: 24 µM
Per 10^6 NK92 cells, mean, n = 3 (SAP, EAT-2), n = 2 (SHP-2)
  Mean (ng)/10^6 cells: 858 ng
Per 10^6 NK92 cells, replicate 1 (first value)
  Mass (ng)/10^6 cells: 928 ng
Per 10^6 NK92 cells, replicate 2
  Mass (ng)/10^6 cells: 787 ng
